# The other results are listed elsewhere or left out. Repeats are few or missing, and single values can be far off.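 Imaging used 1,536-well plates; nuclei positive for cleaved PARP by antibody were divided by total DNA-stained nuclei to yield the apoptosis fraction. Doses for screening kept most cells viable, and cell lines differ markedly in resting and induced cleaved-PARP levels.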
# Assays:
# Test in all cases: cleaved PARP positive nuclei fraction relative to DMSO control; melanoma cells; higher = more apoptosis
# Conditions in all cases: library dose: low library concentration; 72 h
# [1] = system: MZ2-MEL
# [2] = system: MeWo
# [3] = system: RPMI7951
# [4] = system: RVH-421
# [5] = system: SkMel28
# [6] = system: SkMel2
# [7] = system: SkMel30
# [8] = system: SkMel5
# [9] = system: UACC257
# [10] = system: UACC62
# [11] = system: WM115
# [12] = system: WM1716
# [13] = system: WM1745
# [14] = system: WM3526
# [15] = system: WM3619
# [16] = system: WM451Lu
Structure (SMILES),cleaved PARP positive nuclei fraction [1] [%],cleaved PARP positive nuclei fraction [2] [%],cleaved PARP positive nuclei fraction [3] [%],cleaved PARP positive nuclei fraction [4] [%],cleaved PARP positive nuclei fraction [5] [%],cleaved PARP positive nuclei fraction [6] [%],cleaved PARP positive nuclei fraction [7] [%],cleaved PARP positive nuclei fraction [8] [%],cleaved PARP positive nuclei fraction [9] [%],cleaved PARP positive nuclei fraction [10] [%],cleaved PARP positive nuclei fraction [11] [%],cleaved PARP positive nuclei fraction [12] [%],cleaved PARP positive nuclei fraction [13] [%],cleaved PARP positive nuclei fraction [14] [%],cleaved PARP positive nuclei fraction [15] [%],cleaved PARP positive nuclei fraction [16] [%]
"COc1ccc(C2=N[C@@H](c3ccc(Cl)cc3)[C@@H](c3ccc(Cl)cc3)N2C(=O)N2CCNC(=O)C2)c(OC(C)C)c1 [Nutlin-3] + CN(NC(=O)CC(=O)NN(C)C(=S)c1ccccc1)C(=S)c1ccccc1 [STA4783] (first compound 0.1 µM, partner dose 0.006 µM)",148,82,56.5,120,50.1,47.5,63.8,70.2,115,180,60.5,123,237,104,222,220
"CC(=O)O[C@@]12CO[C@@H]1C[C@H](O)[C@@]1(C)C(=O)[C@H](O)C3=C(C)[C@@H](OC(=O)[C@H](O)[C@@H](NC(=O)OC(C)(C)C)c4ccccc4)C[C@@](O)([C@@H](OC(=O)c4ccccc4)[C@H]21)C3(C)C [Docetaxel] + O=C(Nc1ccccc1)c1cc([N+](=O)[O-])ccc1Cl [GW9662] (first compound 0.0001 µM, partner dose 2 µM)",400,266,95.3,149,679,704,149,179,636,845,281,608,158,160,173,137
"CCN(CC)CCNC(=O)c1c(C)[nH]c(/C=C2\C(=O)Nc3ccc(F)cc32)c1C [sunitinib] + C=CCn1c(=O)c2cnc(Nc3ccc(N4CCN(C)CC4)cc3)nc2n1-c1cccc(C(C)(C)O)n1 [MK1775] (first compound 0.4 µM, partner dose 0.02 µM)",156,179,57.3,117,278,66.1,222,92.9,67.6,67.3,112,64.2,114,156,95.7,56.9
"CC1(C)CCC(c2ccc(Cl)cc2)=C(CN2CCN(c3ccc(C(=O)NS(=O)(=O)c4ccc(N[C@H](CCN5CCOCC5)CSc5ccccc5)c(S(=O)(=O)C(F)(F)F)c4)cc3)CC2)C1 + Oc1nc(-c2ccc(C(F)(F)F)cc2)nc2c1CSCC2 [XAV939] (first compound 0.4 µM, partner dose 2 µM)",180,298,92.2,52.1,39.4,175,335,340,131,113,231,627,972,79.8,130,158
"CS(=O)(=O)c1ccc(C(=O)Nc2ccc(Cl)c(-c3ccccn3)c2)c(Cl)c1 [vismodegib] + CCc1ccc(CCOc2ccc(CC3SC(=O)NC3=O)cc2)nc1 [pioglitazone] (first compound 1 µM, partner dose 2 µM)",106,108,30.8,62.7,166,42,37.4,71.5,161,98,25.5,32.7,92.5,84.4,93.9,63.9
"COc1ccc(C2=N[C@@H](c3ccc(Cl)cc3)[C@@H](c3ccc(Cl)cc3)N2C(=O)N2CCNC(=O)C2)c(OC(C)C)c1 [Nutlin-3] + O=C(Nc1ccccc1)c1cc([N+](=O)[O-])ccc1Cl [GW9662] (first compound 0.1 µM, partner dose 2 µM)",101,188,64.2,104,124,119,43.8,76.7,290,92.9,101,90.2,100,150,124,65.8
"NC1(c2ccc(-c3nc4ccn5c(=O)[nH]nc5c4cc3-c3ccccc3)cc2)CCC1 + O=C(CCCCCCC(=O)Nc1ccccc1)NO [vorinostat] (first compound 0.4 µM, partner dose 0.08 µM)",121,212,120,83.2,130,69.4,45.2,78.3,154,42.9,83.1,32.3,90.7,78.3,136,217
"C[C@]1(O)C[C@@H](c2nc(-c3ccc4ccc(-c5ccccc5)nc4c3)c3c(N)nccn32)C1 + NC(=O)Nc1cc(-c2cccc(F)c2)sc1C(=O)N[C@H]1CCCNC1 [AZD7762] (first compound 0.4 µM, partner dose 0.02 µM)",175,49.9,65.6,45.5,33.1,129,155,110,54.1,44.6,87.6,62.2,134,121,200,327
"Cn1sc(=O)n(Cc2ccccc2)c1=O + CC(C)CCN1c2nc(Nc3cc(F)c(O)c(F)c3)ncc2N(C)C(=O)C1C [BID1870] (first compound 0.4 µM, partner dose 0.2 µM)",130,106,127,175,170,225,54.8,148,21.8,79.3,103,106,78.9,556,92.6,107
"CCCCCCCCc1ccc(CCC(N)(CO)CO)cc1 [fingolimod] + CO[C@@H]1[C@H](N(C)C(=O)c2ccccc2)C[C@H]2O[C@]1(C)n1c3ccccc3c3c4c(c5c6ccccc6n2c5c31)C(=O)NC4 [Midostaurin] (first compound 2 µM, partner dose 0.08 µM)",153,62,59.7,97.8,28.2,132,144,81.1,163,154,35.1,148,131,69.4,217,217
"NC(=O)c1ccc(N(C(N)=O)c2c(F)cccc2F)nc1-c1ccc(F)cc1F + Cc1ccc(NC(=O)c2cccc(N(C)C)c2)cc1NC(=O)c1ccc(O)cc1 [ZM336372] (first compound 0.4 µM, partner dose 2 µM)",242,71.3,113,29.2,205,44,75.5,133,112,53.1,66.6,97.8,107,73.1,114,53.9
"CN(c1ncccc1CNc1nc(Nc2ccc3c(c2)CC(=O)N3)ncc1C(F)(F)F)S(C)(=O)=O + Cc1cc(N2CCOCC2)cc2[nH]c(-c3c(NC[C@@H](O)c4cccc(Cl)c4)cc[nH]c3=O)nc12 [BMS536924] (first compound 0.08 µM, partner dose 0.2 µM)",264,240,170,118,54,186,71.5,72.7,44.7,108,111,87.3,141,64.2,101,63.2
"NC(=O)c1ccc(N(C(N)=O)c2c(F)cccc2F)nc1-c1ccc(F)cc1F + NC(=O)Nc1cc(-c2cccc(F)c2)sc1C(=O)N[C@H]1CCCNC1 [AZD7762] (first compound 0.4 µM, partner dose 0.02 µM)",119,51.4,90.6,32,25.2,59.6,64.7,134,47,146,95.9,208,119,154,171,57.2
"CS(=O)(=O)c1ccc(C(=O)Nc2ccc(Cl)c(-c3ccccn3)c2)c(Cl)c1 [vismodegib] + c1cc(-c2cnn3cc(-c4ccc(OCCN5CCCCC5)cc4)cnc23)ccn1 [Dorsomorphin] (first compound 1 µM, partner dose 0.4 µM)",66,135,69.8,25.1,151,102,27.9,96.2,112,65.7,32.3,140,122,77.4,99.4,75.2
"COc1ccc(C2=N[C@@H](c3ccc(Cl)cc3)[C@@H](c3ccc(Cl)cc3)N2C(=O)N2CCNC(=O)C2)c(OC(C)C)c1 [Nutlin-3] + COc1cc(Nc2ncc(F)c(Nc3ccc4c(n3)NC(=O)C(C)(C)O4)n2)cc(OC)c1OC [Tamatinib] (first compound 0.1 µM, partner dose 0.4 µM)",107,105,134,85.9,120,140,94.6,132,132,265,192,57.9,118,37.5,93.7,57.3
"CCCCCCCCc1ccc(CCC(N)(CO)CO)cc1 [fingolimod] + O=C(Nc1cccc(Cl)c1)Nc1ncc(CCNc2ncnc3ccsc23)s1 [SNS314] (first compound 2 µM, partner dose 0.0008 µM)",62.6,55.1,111,73.8,55.2,108,28,74.1,371,209,141,191,132,59.7,109,60.9
"CCN(CC)CCNC(=O)c1c(C)[nH]c(/C=C2\C(=O)Nc3ccc(F)cc32)c1C [sunitinib] + Oc1cc(-c2nc(-c3ccccc3)[nH]c2-c2ccncc2)ccc1Cl [L779450] (first compound 0.4 µM, partner dose 0.2 µM)",112,98.5,45.3,42.3,171,210,59,68,153,156,169,39.4,126,157,72.1,43.4
"Cn1cnc2c(F)c(Nc3ccc(Br)cc3Cl)c(C(=O)NOCCO)cc21 [selumetinib] + O=S(=O)(c1ccccc1)N(CC(F)(F)F)c1ccc(C(O)(C(F)(F)F)C(F)(F)F)cc1 [T0901317] (first compound 0.015 µM, partner dose 1.4 µM)",93.8,54.9,151,334,94.2,46.3,38,66.8,160,256,160,54.7,116,114,133,94.5
"NC(=O)c1ccc(N(C(N)=O)c2c(F)cccc2F)nc1-c1ccc(F)cc1F + COc1cc2c(Oc3ccc4[nH]c(C)cc4c3F)ncnc2cc1OCCCN1CCCC1 [cediranib] (first compound 0.4 µM, partner dose 0.4 µM)",76,49.9,50.9,102,51.4,112,75.2,169,46.7,74.2,36.4,63.1,111,123,96.3,152

# Whole records from above. Order of values: cleaved PARP positive nuclei fraction [1] [%]	cleaved PARP positive nuclei fraction [2] [%]	cleaved PARP positive nuclei fraction [3] [%]	cleaved PARP positive nuclei fraction [4] [%]	cleaved PARP positive nuclei fraction [5] [%]	cleaved PARP positive nuclei fraction [6] [%]	cleaved PARP positive nuclei fraction [7] [%]	cleaved PARP positive nuclei fraction [8] [%]	cleaved PARP positive nuclei fraction [9] [%]	cleaved PARP positive nuclei fraction [10] [%]	cleaved PARP positive nuclei fraction [11] [%]	cleaved PARP positive nuclei fraction [12] [%]	cleaved PARP positive nuclei fraction [13] [%]	cleaved PARP positive nuclei fraction [14] [%]	cleaved PARP positive nuclei fraction [15] [%]	cleaved PARP positive nuclei fraction [16] [%]
# CCCCCCCCc1ccc(CCC(N)(CO)CO)cc1 [fingolimod] + O=C(Nc1cccc(Cl)c1)Nc1ncc(CCNc2ncnc3ccsc23)s1 [SNS314] (first compound 2 µM, partner dose 0.0008 µM) reads 62.6	55.1	111	73.8	55.2	108	28	74.1	371	209	141	191	132	59.7	109	60.9
# COc1ccc(C2=N[C@@H](c3ccc(Cl)cc3)[C@@H](c3ccc(Cl)cc3)N2C(=O)N2CCNC(=O)C2)c(OC(C)C)c1 [Nutlin-3] + CN(NC(=O)CC(=O)NN(C)C(=S)c1ccccc1)C(=S)c1ccccc1 [STA4783] (first compound 0.1 µM, partner dose 0.006 µM) reads 148	82	56.5	120	50.1	47.5	63.8	70.2	115	180	60.5	123	237	104	222	220
